These are yes or no findings as the source states them, for the method shown. Some entries that bind do so weakly or less than the wild type.
target: ErbB2 (UniProt P04626); experiment: MRD identification, Example 48

By UniProt entry, the sequences of proteins in these tests, tags left out. Residues count along the entry.
UniProt P08069, residues 31-932: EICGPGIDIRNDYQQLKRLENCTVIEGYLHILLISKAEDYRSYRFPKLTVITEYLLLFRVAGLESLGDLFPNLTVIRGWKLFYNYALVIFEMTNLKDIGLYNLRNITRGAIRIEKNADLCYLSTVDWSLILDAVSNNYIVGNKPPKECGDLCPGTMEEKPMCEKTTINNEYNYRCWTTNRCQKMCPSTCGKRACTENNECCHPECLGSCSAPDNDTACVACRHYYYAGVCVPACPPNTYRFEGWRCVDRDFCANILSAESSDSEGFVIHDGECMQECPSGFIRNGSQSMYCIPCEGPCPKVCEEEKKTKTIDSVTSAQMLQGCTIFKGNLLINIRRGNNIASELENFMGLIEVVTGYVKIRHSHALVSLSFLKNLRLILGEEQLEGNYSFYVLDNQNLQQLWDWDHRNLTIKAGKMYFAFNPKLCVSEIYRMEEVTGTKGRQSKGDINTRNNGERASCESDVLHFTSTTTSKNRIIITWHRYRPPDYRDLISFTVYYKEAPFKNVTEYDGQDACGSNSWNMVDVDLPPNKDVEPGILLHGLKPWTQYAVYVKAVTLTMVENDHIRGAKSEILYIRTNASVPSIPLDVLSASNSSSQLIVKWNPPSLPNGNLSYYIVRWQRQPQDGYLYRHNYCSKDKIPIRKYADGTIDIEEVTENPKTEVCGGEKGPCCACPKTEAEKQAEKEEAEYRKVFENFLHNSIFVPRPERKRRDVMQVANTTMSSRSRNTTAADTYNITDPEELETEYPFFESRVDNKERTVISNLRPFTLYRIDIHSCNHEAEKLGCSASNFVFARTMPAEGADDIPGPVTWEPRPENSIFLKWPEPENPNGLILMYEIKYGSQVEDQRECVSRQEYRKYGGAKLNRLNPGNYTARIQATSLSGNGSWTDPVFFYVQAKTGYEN

| Binder | binding |
| --- | --- |
| LCFAHQQAMFCN [EGB98] | binds |
| TCHPSWGGKTCT [EGB104] | binds |
| ICVAMTVTCS [EGB106] | binds |
| FCIHFPHSWVCH [EGB117] | binds |
| WCHLFPYSQWCH [EGB122] | binds |
| ICKYFPFSHFCW [EGB123] | binds |
| WDHWHIWHFG [EGB125] | binds |

target: IGF1R (UniProt P08069); experiment: MRD identification, Example 48

| Binder | binding |
| --- | --- |
| VQPLCLEFSELCFDSA [IGF407] | binds |
| EHILCQEFSELCFNRD [IGF408] | binds |
| VPPLCLEFTELCFIID [IGF409] | binds |
| IPPLCLEFWELCFDER [IGF410] | binds |
| PHPLCREFPDLCFDHS [IGF411] | binds |
| PHWLCEEFEELCFEAI [IGF412] | binds |
| DRLLCSEFYELCFDDN [IGF413] | binds |
| PAALCLEFSELCFTQQ [IGF414] | binds |
| YSSLCLEFSELCFDQM [IGF416] | binds |
| RPALCGEFKELCFDGA [IGF417] | binds |
| YNALCNEFIELCFHVN [IGF419] | binds |
| PHWLCLEFAELCFGSG [IGF420] | binds |
| APPLCLEFRELCFGEQ [IGF421] | binds |
| IPQLCLEFTDLCFEDT [IGF423] | binds |
| VPHLCIEFAELCFEGT [IGF424] | binds |
| RMDLCREFTELCFTDS [IGF425] | binds |
| AHQLCIEFAELCFNDG [IGF426] | binds |
| PPLLCLEFPVLCFDSP [IGF427] | binds |
| PHALCLEFSELCFWSL [IGF428] | binds |
| VHQLCMEFEELCFGGA [IGF429] | binds |
| PHALCLEFHELCFDSN [IGF430] | binds |
| YRALCFEFAELCFDEN [IGF431] | binds |
| EFYQGLERLV [IGF485] | binds |

| Binder | binding |
| --- | --- |
| YFYWFQEMVM [IGF498] | binds |
| FYQWFEKQLM [IGF500] | binds |
| ECDFYCGIYTL [IGF504] | binds |
| LCREFQELCF [IGF507] | binds |
| GFYEWFEMQL [IGF511] | binds |
| FYEWFQAQLT [IGF512] | binds |
| GFYEWFEMQM [IGF514] | binds |
| YLSPDDMCYEFPELCF [IGF515] | binds |
| KTSQDMLCWEFEELCF [IGF516] | binds |
| QTTPHILCLEFPELCF [IGF517] | binds |
| LTSWELLCFEFEELCF [IGF518] | binds |
| LVSPEDLCQEFVELCF [IGF519] | binds |
| WYVDPPLCFEFPELCF [IGF520] | binds |
| LCAEFAELCFEDTVRY [IGF521] | binds |
| PGLEIPQLCKEFPELCFTMDDDF [IGF522] | binds |
| LCAEFRELCFHLPAQA [IGF523] | binds |
| MRVESLQLCKEFPELCFFSHGWT [IGF524] | binds |
| RLTPQDLCFEFSELCF [IGF526] | binds |
| LSSYDVLCQEFSELCF [IGF527] | binds |
| GPMEVHDLCKEFSELCF [IGF532] | binds |
| LRPESIALCKEFPELCFEGWKSA [IGF533] | binds |
| QSLDIPGLCKEFPELCFEMTGMR [IGF534] | binds |
